Experimental data published in the supplement of paper PMC7877785.
± gives the uncertainty stated by the source. Many entries were measured with a wide error.

Test: self-splicing fitness, log relative to wild type (ln ratio); higher = more splicing; Tetrahymena group I intron in knt gene, E. coli kanamycin selection, DiMSum; sequences stand for … in CUCUCU…GGAGGGAAAAGUUAUCAGGCAUGCACCUGGUAGCUAGUCUUUAAACCAAUAGAUUGCAUCGGUUUAAAAGGCAAGACCGUCAAAUUGCGGGAAAGGGGUCAACAGCCGUUCAGUACCAAGUCUCAGGGGAAACUUUGAGAUGGCCUUGCAAAGGGUAUGGUAAUAAGCUGACGGACAUGGUCCUAACCACGCAGCCAAGUCCUAAGUCAACAGAUCUUCUGUUGAUAUGGAUGCAGUUCACAGACUAAAUGUCGGUCGGGGAAGAUGUAUUCUUCUCAUAAGAUAUAGUCGGACCUCUCCUUAAUGGGAGCUAGCGGAUGAAGUGAUGCAACACUGGAGCCGCUGGGAACUAAUUUGUAUGCGAAAGUAUAUUGAUUAGUUUUGGAGUACUCGUGGUCG
How it was run: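 Library with all eight P1ex-region intron nucleotides randomised, intron inside the knt kanamycin-resistance gene on pET-22b(+), in E. coli BL21(DE3). Cells grew overnight at 37°C or 30°C on LB agar with or without 25 μg/mL kanamycin (plus 100 μg/mL carbenicillin, 50 μM IPTG, 0.2% rhamnose), in six replicate transformations. Pooled colonies were amplicon-sequenced on Illumina HiSeq 2500. DiMSum fitness is the error-weighted combination of wild-type-normalised replicate fold changes, kanamycin versus none.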

AAUCAGCAAUAUUACGUUUG
self-splicing fitness (ln) (30 °C): -2.11 ± 0.092 | self-splicing fitness (ln) (37 °C): -1.94 ± 0.13

UCCGAGCAAUAUUACGUCUG
self-splicing fitness (ln) (37 °C): -2.97 ± 0.53

AGCAAGCAAUAUUACGCUUA
self-splicing fitness (ln) (30 °C): -2.94 ± 0.15 | self-splicing fitness (ln) (37 °C): -1.71 ± 0.11

GUCAAGCAAUAUUACGCGCG
self-splicing fitness (ln) (30 °C): -2 ± 0.13 | self-splicing fitness (ln) (37 °C): -1.32 ± 0.15

GUAUAGCAAUAUUACGAGAA
self-splicing fitness (ln) (30 °C): -1.88 ± 0.79

CCGAAGCAAUAUUACGUGAC
self-splicing fitness (ln) (30 °C): -4.15 ± 0.52

UCCAAGCAAUAUUACGCUCC
self-splicing fitness (ln) (30 °C): -2.56 ± 0.65 | self-splicing fitness (ln) (37 °C): -1.34 ± 0.71

CGGGAGCAAUAUUACGUCGC
self-splicing fitness (ln) (30 °C): -4.58 ± 1 | self-splicing fitness (ln) (37 °C): -2.15 ± 0.79

UACGAGCAAUAUUACGAUCU
self-splicing fitness (ln) (37 °C): -3.44 ± 0.52

GAAGAGCAAUAUUACGAAGG
self-splicing fitness (ln) (30 °C): -2.75 ± 0.17 | self-splicing fitness (ln) (37 °C): -3.62 ± 0.46

GUGGAGCAAUAUUACGGGCU
self-splicing fitness (ln) (37 °C): -1.89 ± 0.59

AGAGAGCAAUAUUACGACGA
self-splicing fitness (ln) (30 °C): -2.89 ± 0.54

UCGCAGCAAUAUUACGCGGA
self-splicing fitness (ln) (30 °C): -3.38 ± 0.61

CAUUAGCAAUAUUACGCACG
self-splicing fitness (ln) (30 °C): -0.832 ± 0.12 | self-splicing fitness (ln) (37 °C): 0.325 ± 0.14

GAAGAGCAAUAUUACGGAAU
self-splicing fitness (ln) (30 °C): -2.81 ± 1.1 | self-splicing fitness (ln) (37 °C): -2.84 ± 0.61

CCACAGCAAUAUUACGCUCC
self-splicing fitness (ln) (30 °C): -3.6 ± 0.54 | self-splicing fitness (ln) (37 °C): -2.14 ± 0.63

GUAGAGCAAUAUUACGACGG
self-splicing fitness (ln) (37 °C): -1.45 ± 0.6

CUGAAGCAAUAUUACGACAC
self-splicing fitness (ln) (37 °C): -1.38 ± 0.74

AGGGAGCAAUAUUACGUGGG
self-splicing fitness (ln) (37 °C): -3.84 ± 0.51

UCGCAGCAAUAUUACGCGGC
self-splicing fitness (ln) (30 °C): -4.69 ± 0.72

GAGUAGCAAUAUUACGUGUG
self-splicing fitness (ln) (30 °C): -2.73 ± 0.11 | self-splicing fitness (ln) (37 °C): -1.87 ± 0.12

AUUGAGCAAUAUUACGUUUG
self-splicing fitness (ln) (30 °C): -4.63 ± 0.59

AAUGAGCAAUAUUACGACGC
self-splicing fitness (ln) (30 °C): -2.08 ± 0.57 | self-splicing fitness (ln) (37 °C): 0.309 ± 0.84

ACUGAGCAAUAUUACGAGUU
self-splicing fitness (ln) (30 °C): -2.88 ± 0.17 | self-splicing fitness (ln) (37 °C): -2.91 ± 0.28

AGGGAGCAAUAUUACGGCAG
self-splicing fitness (ln) (30 °C): -4.78 ± 0.72 | self-splicing fitness (ln) (37 °C): -3.29 ± 0.53

UAAGAGCAAUAUUACGAAGC
self-splicing fitness (ln) (37 °C): -2.98 ± 1.1

AUCUAGCAAUAUUACGAAAC
self-splicing fitness (ln) (30 °C): -2.28 ± 0.65

CUGAAGCAAUAUUACGCUGC
self-splicing fitness (ln) (37 °C): -2.32 ± 0.55

UUCGAGCAAUAUUACGGACC
self-splicing fitness (ln) (37 °C): -1.54 ± 1.2

GGGGAGCAAUAUUACGUCUA
self-splicing fitness (ln) (30 °C): -2.13 ± 0.67

ACAGAGCAAUAUUACGUCCC
self-splicing fitness (ln) (30 °C): -3.12 ± 1.1

CCCGAGCAAUAUUACGCCUG
self-splicing fitness (ln) (37 °C): -2.52 ± 0.55

AGUCAGCAAUAUUACGCGUC
self-splicing fitness (ln) (30 °C): -2.65 ± 0.23 | self-splicing fitness (ln) (37 °C): -0.977 ± 0.23

CUUGAGCAAUAUUACGAACC
self-splicing fitness (ln) (30 °C): -3.25 ± 0.74

CGGUAGCAAUAUUACGAAAC
self-splicing fitness (ln) (30 °C): -4.42 ± 0.59

AAAGAGCAAUAUUACGGGGU
self-splicing fitness (ln) (30 °C): -2.63 ± 0.21 | self-splicing fitness (ln) (37 °C): -2.18 ± 0.24

UACGAGCAAUAUUACGCCAA
self-splicing fitness (ln) (37 °C): -2.65 ± 0.75

UAUGAGCAAUAUUACGUCUC
self-splicing fitness (ln) (37 °C): -3.77 ± 1

UCCUAGCAAUAUUACGAAUC
self-splicing fitness (ln) (30 °C): -5.08 ± 0.72

GUCGAGCAAUAUUACGCAUC
self-splicing fitness (ln) (30 °C): -2.31 ± 0.26 | self-splicing fitness (ln) (37 °C): -0.574 ± 0.22

CUAGAGCAAUAUUACGGCAC
self-splicing fitness (ln) (30 °C): -3.4 ± 0.6

UUCGAGCAAUAUUACGGAGU
self-splicing fitness (ln) (30 °C): -3.82 ± 0.77

GCCUAGCAAUAUUACGGCGC
self-splicing fitness (ln) (30 °C): -0.67 ± 0.14 | self-splicing fitness (ln) (37 °C): 0.263 ± 0.18

CUGCAGCAAUAUUACGACCU
self-splicing fitness (ln) (30 °C): -2.84 ± 0.53 | self-splicing fitness (ln) (37 °C): -1.73 ± 0.54

CAACAGCAAUAUUACGCCGC
self-splicing fitness (ln) (37 °C): -3.56 ± 0.6

GUGUAGCAAUAUUACGAGUG
self-splicing fitness (ln) (37 °C): -0.845 ± 0.65

UCGUAGCAAUAUUACGAGGC
self-splicing fitness (ln) (37 °C): -2.67 ± 1.1

UCGUAGCAAUAUUACGUCCC
self-splicing fitness (ln) (37 °C): -0.836 ± 0.56

CGUAAGCAAUAUUACGCGCC
self-splicing fitness (ln) (30 °C): -3.76 ± 0.54

UUCCAGCAAUAUUACGUGCC
self-splicing fitness (ln) (30 °C): -3.57 ± 0.73

CGUCAGCAAUAUUACGAGAC
self-splicing fitness (ln) (30 °C): -2.95 ± 0.38 | self-splicing fitness (ln) (37 °C): -1.9 ± 0.32

CUUUAGCAAUAUUACGCAGA
self-splicing fitness (ln) (30 °C): -2.93 ± 0.55

CCAUAGCAAUAUUACGGACC
self-splicing fitness (ln) (30 °C): -3.43 ± 1 | self-splicing fitness (ln) (37 °C): -1.72 ± 0.59

GGCAAGCAAUAUUACGAGGC
self-splicing fitness (ln) (37 °C): -1.92 ± 0.58

GGCUAGCAAUAUUACGAAAC
self-splicing fitness (ln) (30 °C): 0.467 ± 0.5

CUUAAGCAAUAUUACGAGAU
self-splicing fitness (ln) (30 °C): -2.92 ± 0.22 | self-splicing fitness (ln) (37 °C): -1.59 ± 0.2

GAUUAGCAAUAUUACGUAGC
self-splicing fitness (ln) (30 °C): -1.74 ± 0.14 | self-splicing fitness (ln) (37 °C): -1.33 ± 0.18

AUGGAGCAAUAUUACGAGUA
self-splicing fitness (ln) (30 °C): -2.37 ± 0.55 | self-splicing fitness (ln) (37 °C): -2.93 ± 0.75

GUAGAGCAAUAUUACGUGCC
self-splicing fitness (ln) (30 °C): -4.4 ± 1

AUCGAGCAAUAUUACGCAUC
self-splicing fitness (ln) (37 °C): -3.43 ± 0.52

UCAGAGCAAUAUUACGUAGC
self-splicing fitness (ln) (30 °C): -2.09 ± 0.54 | self-splicing fitness (ln) (37 °C): -2.68 ± 0.54
